Reference: article PMC9406315
No constants are given. Whether binding was seen depends on the method and setting. Binding seen in cells or lysates may run through a third protein. Some results given as binding are weak or reduced against the parent protein; the word gives no strength. Tags and fused reporters may be left off the sequences shown.

Chains of the proteins cited; added tags and fusions are not shown.
UniProt Q00987: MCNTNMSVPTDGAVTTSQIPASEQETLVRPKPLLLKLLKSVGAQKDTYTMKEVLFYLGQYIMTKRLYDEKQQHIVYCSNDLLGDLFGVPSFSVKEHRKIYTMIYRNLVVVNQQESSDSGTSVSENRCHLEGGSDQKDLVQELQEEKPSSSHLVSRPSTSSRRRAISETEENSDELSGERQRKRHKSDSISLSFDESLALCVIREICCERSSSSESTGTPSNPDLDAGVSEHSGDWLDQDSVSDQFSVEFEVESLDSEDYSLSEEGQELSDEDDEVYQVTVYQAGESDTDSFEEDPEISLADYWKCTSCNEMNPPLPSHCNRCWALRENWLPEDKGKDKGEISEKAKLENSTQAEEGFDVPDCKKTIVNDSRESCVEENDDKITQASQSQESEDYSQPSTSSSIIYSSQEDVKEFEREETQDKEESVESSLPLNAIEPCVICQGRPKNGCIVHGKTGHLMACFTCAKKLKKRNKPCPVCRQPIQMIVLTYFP

Biological target: T1, MAGED2-Myc (UniProt Q9UNF1)
T1 sequence: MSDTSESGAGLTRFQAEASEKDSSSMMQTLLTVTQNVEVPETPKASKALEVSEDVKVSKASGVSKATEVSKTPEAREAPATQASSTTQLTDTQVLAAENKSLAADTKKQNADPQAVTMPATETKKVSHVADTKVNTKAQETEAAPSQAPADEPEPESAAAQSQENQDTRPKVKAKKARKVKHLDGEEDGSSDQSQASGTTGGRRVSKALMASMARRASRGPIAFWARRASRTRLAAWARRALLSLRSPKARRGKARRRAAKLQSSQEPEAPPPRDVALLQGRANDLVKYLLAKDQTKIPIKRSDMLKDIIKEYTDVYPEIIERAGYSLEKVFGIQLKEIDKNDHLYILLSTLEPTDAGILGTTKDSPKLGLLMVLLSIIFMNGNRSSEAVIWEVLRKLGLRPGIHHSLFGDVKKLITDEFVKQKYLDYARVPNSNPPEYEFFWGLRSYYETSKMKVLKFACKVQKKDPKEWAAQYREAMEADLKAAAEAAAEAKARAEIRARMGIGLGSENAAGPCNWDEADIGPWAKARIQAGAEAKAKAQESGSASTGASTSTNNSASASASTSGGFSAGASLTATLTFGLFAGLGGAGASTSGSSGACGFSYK
Assay: co-IP; HeLa cells transiently transfected with Gαs-HA alone or with MAGED2-Myc; lysed in TNTE buffer (20 mM Tris-HCl pH 7.4, 150 mM NaCl, 5 mM EDTA, 0.5% Triton X-100, 10% glycerol); IP with anti-Myc antibody crosslinked (BS3) to protein G magnetic beads, 1 h at room temperature; washed three times in PBS; immunoblot

- binding: binds
Substance: MDM2 (from UniProt Q00987 1-491)
